Assay results reported in publication PMC7585440.
These are yes or no findings as the source states them, for the method shown. Some entries that bind do so weakly or less than the wild type.

By UniProt entry, the sequences of proteins in these tests, tags left out. Where a name states a change or a piece, a line headed by the entry shows the natural chain unless it says otherwise. Residues count along the entry.
UniProt O75581, residues 21-630: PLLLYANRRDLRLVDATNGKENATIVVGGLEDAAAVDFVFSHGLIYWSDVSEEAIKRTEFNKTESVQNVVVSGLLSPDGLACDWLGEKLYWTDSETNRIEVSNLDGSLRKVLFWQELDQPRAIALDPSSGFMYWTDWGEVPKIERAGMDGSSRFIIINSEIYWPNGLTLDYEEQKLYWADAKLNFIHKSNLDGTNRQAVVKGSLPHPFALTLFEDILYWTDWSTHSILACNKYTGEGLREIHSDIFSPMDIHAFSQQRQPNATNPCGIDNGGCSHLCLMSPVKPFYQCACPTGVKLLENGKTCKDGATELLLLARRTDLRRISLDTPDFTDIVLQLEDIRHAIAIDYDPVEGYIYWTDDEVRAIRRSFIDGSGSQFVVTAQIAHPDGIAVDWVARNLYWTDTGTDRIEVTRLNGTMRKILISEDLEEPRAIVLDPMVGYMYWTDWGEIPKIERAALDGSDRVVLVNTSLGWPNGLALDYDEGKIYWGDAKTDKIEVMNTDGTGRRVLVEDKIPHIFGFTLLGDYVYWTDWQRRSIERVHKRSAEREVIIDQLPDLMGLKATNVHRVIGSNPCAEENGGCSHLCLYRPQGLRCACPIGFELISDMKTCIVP
UniProt Q9BQB4: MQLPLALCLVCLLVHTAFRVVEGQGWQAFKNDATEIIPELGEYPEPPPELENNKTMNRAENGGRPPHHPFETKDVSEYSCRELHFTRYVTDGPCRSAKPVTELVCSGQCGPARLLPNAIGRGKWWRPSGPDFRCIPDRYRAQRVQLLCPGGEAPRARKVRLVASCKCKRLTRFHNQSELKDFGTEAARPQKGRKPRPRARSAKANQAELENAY

Columns and labels:
[1] = biological target: human LRP6 E1E2 with a C-terminal 10× His tag, labeled with the dye NT-647 (human) (UniProt O75581); test: MST; LRP6 E1E2 or E1 labeled with NT-647 at ~5 nM, unlabeled SOST proteins or peptides titrated; 20 mM Tris-Cl pH 7.0, 200 mM NaCl, 0.5 mg/ml BSA, 0.05% Tween 20; 22 °C; Monolith NT.115 Pico; both purified
[2] = biological target: human LRP6 E1E2 (P21–P630) with a C-terminal 10× His tag (human) (UniProt O75581); test: crystal structure; LRP6 E1E2–SOST_(tr177) complex co-expressed and co-purified; crystals at 298 K in 0.1 M HEPES pH 7.2, 0.15 M magnesium acetate, 80 mM sodium citrate, 10% PEG 8000; 3.8 Å; two copies of a 1:1 complex in the asymmetric unit; both purified

binding [1]	binding [2]	Substance
binds	–	SOSTtr178 with an N-terminal His6-SUMO tag (from UniProt Q9BQB4 24-178) (domain or fragment)
–	binds	human SOST_(tr177) (Q24-S177) (from UniProt Q9BQB4 24-177) (domain or fragment)
